Measurements taken from PubChem BioAssay AID2685 (National Center for Advancing Translational Sciences (NCATS), 2010).
This is one part of the list. These are further read-outs of the screen, such as a control signal, another cell line or another target. No call is given for them. Most of these compounds were active or inconclusive in the main read-out, so they are no random draw. Words in brackets tell the shape of the fitted curve; partial curves, single points and poor fits give uncertain potencies.

Assay: qHTS Assay for Lipid Storage Modulators in Drosophila S3 Cells;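 on cell number change: cells counted by Cell Tracker Red CMTPX staining in the red channel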
Details: BODIPY lipid droplet fluorescence, 18-24 h; for cell number change: measured here: cell count max response, cells fed with added oleic acid
Outline: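 Drosophila S3 cells got compounds at several concentrations plus oleic acid (400 uM solution). Laser-scanning cytometry with 488 nm excitation read lipid droplets at 500-530 nm and cells at 575-640 nm. Percent activity was relative to 20 uM Triacsin C.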

[1] = measured here: cell number channel AC50, cells fed with added oleic acid
[2] = measured here: lipid fluorescence (Fed channel) AC50, cells fed with added oleic acid

Compound | cell number change [%] | AC50 [1] | AC50 [2]
C/C(=N\Nc1ccc([N+](=O)[O-])cc1)c1ccc(C#N)cc1 | 14.7 | 6.51 µM [rising, single point] | 2.91 µM [rising, partial curve, poor fit]
CC1=Nc2cc(C(=O)NCC3CCCO3)ccc2Sc2ccc(C)cc21 (stereo unspecified) | -22.6 |  | 23.1 µM [rising, single point]
O=C(NC(NC1CCS(=O)(=O)C1)C(Cl)(Cl)Cl)c1cccc(Cl)c1 (stereo unspecified) | 24.7 |  | 4.11 µM [rising, partial curve, poor fit]
CCN(CC)Cc1c(O)ccc2c(=O)c(-c3ccccc3OC)coc12 | -21.1 |  | 
Cc1ccc2cc(C(c3nnnn3Cc3ccccc3)N3CCN(c4ccccc4)CC3)c(=O)[nH]c2c1 (stereo unspecified) | 41.1 | 14.6 µM [rising, single point] | 23.1 µM [rising, partial curve]
COc1ccccc1N1CCN(C2CCCN(Cc3ccc(Cl)cc3)C2)CC1 (stereo unspecified) | 1.1 |  | 
CCOC(=O)C1=C(C)NC(C)=C(C(=O)OCC)C1C(=O)OCC(=O)N(CC)C1CCS(=O)(=O)C1 (stereo unspecified) | 91.9 |  | 2.91 µM [falling, single point]
O=C(Nc1ccc(Cc2ccncc2)cc1)c1ccco1 | -9.13 |  | 16.4 µM [rising, single point]
Cc1cccc(NC(=O)c2cccnc2)c1C | 41.1 | 29.1 µM [rising, single point] | 
O=C(COc1ccccc1Cl)NCCNC(=O)c1ccccn1 | -17.1 |  | 3.26 µM [falling, full curve]
Cc1ccc(NC(=O)CCSc2nnc(Cc3ccccc3)o2)cc1 | -5.01 |  | 0.206 µM [falling, full curve, poor fit]
CC(=O)c1cccc(NC(=O)CN2C(=O)c3ccccc3C2=O)c1 | 1.57 |  | 14.6 µM [rising, partial curve]
CC1(c2nnc(-c3ccc(F)cc3)o2)CC(c2ccccc2)=NO1 (stereo unspecified) | 25.7 |  | 7.31 µM [rising, partial curve, poor fit]
COc1ccccc1C(=O)Nc1c2c(nn1-c1cccc(C)c1C)CS(=O)C2 (stereo unspecified) | 27.2 |  | 
O=C(NC1CCS(=O)(=O)C1)c1cn(-c2ccccc2)nc1-c1ccccc1 (stereo unspecified) | 5.77 |  | 29.1 µM [rising, single point]
Cc1nnc(SCC2=C(C(=O)O)N3C(=O)C(NC(=O)COc4ccc(F)cc4)C3SC2)s1 (stereo unspecified) | 2.2 |  | 0.13 µM [falling, full curve, poor fit]
Cc1ccc(CNC(=O)CCCCCNc2nc(=S)[nH]c3ccccc23)cc1 |  |  | 6.51 µM [rising, single point]
COCCN(CCOC)S(=O)(=O)c1ccc(C(=O)Nc2nc3c(s2)CCc2ccccc2-3)cc1 | -38.7 | 16.4 µM [falling, single point] | 29.1 µM [falling, single point]
O=C(COC(=O)c1ccccc1NC(=O)c1ccco1)NCc1ccc2c(c1)OCO2 | -59.1 | 16.4 µM [falling, single point] | 0.116 µM [rising, single point]
Cc1cc(C(=O)N/N=C/c2ccc(-c3ccccc3Cl)o2)n[nH]1 | -38.2 | 13 µM [falling, single point] | 
COC(=O)CCCn1nc(NC(=O)COc2ccc(F)cc2)cc1C | 2.86 |  | 

Three entries out of the list, ordered by number of heavy atoms, smallest number first.
Compound | cell number change [%] | AC50 [1] | AC50 [2]
Cc1cccc(NC(=O)c2cccnc2)c1C | 41.1 | 29.1 µM [rising, single point] | 
C/C(=N\Nc1ccc([N+](=O)[O-])cc1)c1ccc(C#N)cc1 | 14.7 | 6.51 µM [rising, single point] | 2.91 µM [rising, partial curve, poor fit]
COC(=O)CCCn1nc(NC(=O)COc2ccc(F)cc2)cc1C | 2.86 |  | 

The listing continues.

Compound | cell number change [%] | AC50 [1] | AC50 [2]
COc1cccc(C(C(=O)NCC2CCCO2)N(C(=O)Cn2nnc3ccccc32)c2ccccc2C(C)=O)c1OC (stereo unspecified) | 1.28 |  | 0.116 µM [rising, single point]
Cc1cc(C)c(C2C3=C(Nc4c2c(C)nn4-c2ccccn2)c2ccccc2C3=O)c(C)c1 (stereo unspecified) | 38.6 | 2.31 µM [rising, full curve] | 2.59 µM [rising, full curve]
Cc1c(Cl)ccc2c1NC(=O)[C@]21N[C@@H](Cc2ccccc2)[C@H]2C(=O)N(c3ccc(F)cc3)C(=O)[C@H]21 | -20.3 |  | 
COc1ccc(/C=C/c2nc3ccccc3c(=O)o2)cc1 | -5.93 |  | 6.51 µM [rising, full curve, poor fit]
Brc1ccc2nc(CSc3ncn[nH]3)cn2c1 | -10.2 | 1.3 µM [rising, full curve, poor fit] | 
Brc1cccc(CN2CCN(c3ncccn3)CC2)c1 |  |  | 29.1 µM [rising, single point]
Cc1c(C)c2c(OCC(=O)NCCCO)cc3c(c2oc1=O)CCC(C)(C)O3 | 15.5 |  | 
Cc1cc(Cl)c(OCCOCCN2CCCCC2)c(Br)c1 | 5.88 |  | 0.82 µM [falling, partial curve]
Cn1c(SCc2nc(-c3ccc(Br)cc3)no2)nnc1-c1ccco1 | -1.73 |  | 0.0731 µM [rising, full curve, poor fit]
CC(O)Cn1c(N2CCCC2)nc2c1c(=O)[nH]c(=O)n2C (stereo unspecified) | -0.293 |  | 
COc1ccc2nc(-c3ccccc3)cc(C(=O)OCC(=O)N3CC(C)OC(C)C3)c2c1 (stereo unspecified) | -18 |  | 23.1 µM [falling, partial curve]
Cc1nn(-c2ccccc2)c2c1C(c1ccc(Br)s1)C(C#N)=C(N)O2 (stereo unspecified) | -25.6 |  | 
O=C(Cn1nc(-c2ccc(N3CCOCC3)c([N+](=O)[O-])c2)c2ccccc2c1=O)N1CCCCC1 | 28.9 |  | 18.4 µM [rising, partial curve]
O=C(CN1CCS(=O)(=O)CC1)NNC(=O)C1CCCCC1 | -40.9 | 23.1 µM [falling, single point] | 
Cc1cccc2cc(CN(CCCO)C(=O)Nc3cccc(Cl)c3)c(=O)[nH]c12 |  | 0.058 µM [rising, partial curve] | 5.17 µM [rising, full curve]
Cc1ccc(/C(N)=N/OC(=O)Cc2cccs2)cc1 | -7.39 |  | 29.1 µM [falling, single point]
Cc1ccc(C)c(-n2ccnc2SCC(=O)O)c1 | -8.85 | 0.0116 µM [falling, full curve, poor fit] | 0.58 µM [falling, full curve]
CN(C)C1(CN=Cc2cc(Cl)cc([N+](=O)[O-])c2O)CCCCC1 | 12.8 |  | 0.116 µM [falling, single point]
CN(C)c1ccc(CNC(=O)CN(C)S(=O)(=O)c2cccc3cccnc23)cc1 | 1.3 |  | 0.00411 µM [rising, full curve, poor fit]
COc1ccc(OC)c(NC(=O)[C@@]2(CC(=O)O)CC(/C=C/c3ccccc3)=NO2)c1 | -2.24 |  | 29.1 µM [falling, partial curve]
N#CC1(c2ccccc2)CCCN1C(=O)c1ccco1 (stereo unspecified) | -23.8 |  | 29.1 µM [falling, single point]

Compound | cell number change [%] | AC50 [1] | AC50 [2]
COc1cccc(NC(=O)CSc2nnc(-c3ccco3)c(-c3ccco3)n2)c1 | 7.98 |  | 
CC1(C)CC(=O)C(C(C2=C(O)CC(C)(C)CC2=O)c2cccnc2)C(=O)C1 (stereo unspecified) | -3.27 |  | 
COc1cccc(CN(C)C(=O)CSc2nc3ccccc3[nH]2)c1OC |  |  | 6.51 µM [rising, partial curve, poor fit]
Cc1cccc(CCN(C(=O)c2csnn2)C(C(=O)NC2CCCC2)c2ccco2)c1 (stereo unspecified) | -6.67 |  | 
O=C(Nc1cccnc1)C1CC(c2ccc(Cl)c(Cl)c2)=NO1 (stereo unspecified) |  |  | 29.1 µM [rising, single point]
CC(=O)N1C(C)(C)CC(=NOS(=O)(=O)c2ccccc2)CC1(C)C | -45.2 | 13 µM [falling, partial curve, poor fit] | 8.2 µM [falling, partial curve, poor fit]
CCC(Oc1ccccc1F)C(=O)Nc1ccc2c(c1)n(C)c(=O)n2C (stereo unspecified) | -2.46 |  | 
CC[n+]1cc(C)ccc1/C=C/c1ccc(N(C)C)cc1 | -94.3 | 6.51 µM [falling, full curve, poor fit] | 
O=C(O)C/C(=C\c1cc(Cl)c2c(c1)OCO2)c1nc2ccccc2s1 | -8.97 |  | 
O=C(Nc1cccc(Cl)c1)N(CCCN1CCOCC1)Cc1ccccc1F | -19 |  | 29.1 µM [rising, single point]
O=C(Nc1ccccc1[N+](=O)[O-])c1cc(S(=O)(=O)N2CCOCC2)cs1 | 4.25 |  | 16.4 µM [falling, single point]
Cc1ccc(NC(=O)CN2C(=O)NC(Cc3ccccc3)C2=O)cc1Cl (stereo unspecified) | -3.31 |  | 
CCCn1c(=O)c(C(=O)NNS(=O)(=O)c2ccc(Cl)cc2)c(O)c2ccccc21 | 12.6 | 3.26 µM [falling, single point] | 6.51 µM [falling, single point]
COc1ccc(OCC(=O)N2CCN(C(=O)Cc3ccccc3)CC2)cc1 | 34.7 |  | 18.4 µM [rising, single point]
Cc1c(OC(C)C(=O)NCCN2CCOCC2)ccc2c3c(c(=O)oc12)CCC3 (stereo unspecified) | 3.58 |  | 0.82 µM [rising, full curve, poor fit]
O=C(NC(CC1CCCCC1)C(=O)O)c1ccccc1 (stereo unspecified) | -13.5 |  | 3.26 µM [rising, partial curve]
COc1ccc(C2=NS(=O)(=O)N(C)C(C(=O)Nc3ccc(C)cc3)=C2)cc1 | 6.63 |  | 
Cc1nc2nc(CC(=O)O)[nH]n2c(=O)c1[N+](=O)[O-] |  | 4.11 µM [falling, single point] | 6.51 µM [falling, single point]
CC1Cc2cc(/C(O)=C3\C(=O)C(=O)N(Cc4cccnc4)C3c3ccccc3F)ccc2O1 (stereo unspecified) | 10.9 |  | 32.6 µM [rising, partial curve, poor fit]

In the list so far, these contain an NH in an aromatic ring:
Compound | cell number change [%] | AC50 [1] | AC50 [2]
Cc1ccc2cc(C(c3nnnn3Cc3ccccc3)N3CCN(c4ccccc4)CC3)c(=O)[nH]c2c1 (stereo unspecified) | 41.1 | 14.6 µM [rising, single point] | 23.1 µM [rising, partial curve]
Cc1ccc(CNC(=O)CCCCCNc2nc(=S)[nH]c3ccccc23)cc1 |  |  | 6.51 µM [rising, single point]
Cc1cc(C(=O)N/N=C/c2ccc(-c3ccccc3Cl)o2)n[nH]1 | -38.2 | 13 µM [falling, single point] | 
Brc1ccc2nc(CSc3ncn[nH]3)cn2c1 | -10.2 | 1.3 µM [rising, full curve, poor fit] | 
CC(O)Cn1c(N2CCCC2)nc2c1c(=O)[nH]c(=O)n2C (stereo unspecified) | -0.293 |  | 
Cc1cccc2cc(CN(CCCO)C(=O)Nc3cccc(Cl)c3)c(=O)[nH]c12 |  | 0.058 µM [rising, partial curve] | 5.17 µM [rising, full curve]
COc1cccc(CN(C)C(=O)CSc2nc3ccccc3[nH]2)c1OC |  |  | 6.51 µM [rising, partial curve, poor fit]
Cc1nc2nc(CC(=O)O)[nH]n2c(=O)c1[N+](=O)[O-] |  | 4.11 µM [falling, single point] | 6.51 µM [falling, single point]
